Data from PubChem BioAssay AID720504 (National Center for Advancing Translational Sciences (NCATS), 2013).
Out of some 360,000 compounds screened, about 10,000 (2.8%) were called active. Inconclusive results, whose numbers are uncertain, are shown with a selection of clear calls. Calls follow the shape of the dose curve; as a rule, active = well fitted inhibition curve with a large enough effect; inconclusive = small, poorly fitted or top-dose-only effect; inactive = flat fitted curve, though single readings scatter. A potency beside an inconclusive call is a rough fit, not a confirmed value.

Sequences of proteins named here, by UniProt entry; tags and fusion partners are left off.
UniProt P53350, whole entry, looked up: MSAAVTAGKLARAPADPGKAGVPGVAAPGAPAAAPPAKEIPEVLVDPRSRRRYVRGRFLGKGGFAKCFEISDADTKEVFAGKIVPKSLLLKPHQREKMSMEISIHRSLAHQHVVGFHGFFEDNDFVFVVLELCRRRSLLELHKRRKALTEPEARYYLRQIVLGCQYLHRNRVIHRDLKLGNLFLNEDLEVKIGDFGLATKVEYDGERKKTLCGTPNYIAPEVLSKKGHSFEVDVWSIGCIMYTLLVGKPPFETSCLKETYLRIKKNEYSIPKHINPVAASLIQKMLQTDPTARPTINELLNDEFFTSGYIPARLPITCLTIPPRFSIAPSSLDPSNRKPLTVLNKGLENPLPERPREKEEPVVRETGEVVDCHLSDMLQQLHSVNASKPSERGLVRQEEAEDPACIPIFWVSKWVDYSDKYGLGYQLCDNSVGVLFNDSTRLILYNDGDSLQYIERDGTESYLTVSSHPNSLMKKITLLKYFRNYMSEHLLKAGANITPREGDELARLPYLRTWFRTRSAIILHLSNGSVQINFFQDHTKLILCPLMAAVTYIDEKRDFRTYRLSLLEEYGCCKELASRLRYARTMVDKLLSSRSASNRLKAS

The molecules below were run against Serine/threonine-protein kinase PLK1 (Homo sapiens) (UniProt P53350) (assay: qHTS for Inhibitors of PLK1-PDB (polo-like kinase 1 - polo-box domain): Primary Screen). Conditions: Plk1 PBD binding of FITC phosphopeptide, fluorescence polarization.
% is scaled to controls: 0 for no effect and ±100 for the full control effect; potency is read from the fitted curve at half-maximal effect.
Also: nearly all actives have a fitted effect of over 65% in size.
For max response, negative = inhibition in this document: series mostly up to about 57 µM.

Structure (SMILES) | Potency | max response, negative = inhibition
CCOC(=O)Cn1c(N)c(C(=O)OC)sc1=S | inconclusive: 26.7 µM [inhibitor, partial curve] | 
CCOc1ccc(C2C3=C(CCCC3=O)N(CC(=O)O)C3=C2C(=O)CCC3)cc1 | inconclusive: 23.8 µM [inhibitor, single point] | 
Cc1ccc(CCNC(=O)CN2C(=O)COc3ccc(S(=O)(=O)N4CCOCC4)cc32)cc1 |  | inactive: -13.1%
CCN(CC)c1ccc(NC(=O)COc2ccccc2C#N)cc1S(=O)(=O)Nc1ccc(OC)cc1 | inconclusive: 23.8 µM [inhibitor, single point] | 
O=C(/C=C/Sc1ccccc1)c1ccccc1 | active: 13.4 µM | 
Oc1ccc(CN2CCCc3ccccc32)c2cccnc12 | inconclusive: 2.67 µM [inhibitor, partial curve] | 
Cc1cnc(C(=O)OCC(=O)Nc2oc(-c3ccccc3)c(-c3ccccc3)c2C#N)cn1 |  | inconclusive: -35.3% [inhibitor]
Cc1c(C(=O)O)cccc1-c1ccc(/C=N/n2cnnc2)o1 | inconclusive: 26.7 µM [inhibitor, partial curve] | 
CC1(C)CC(=O)C2=C(C1)NC(=O)NC2c1ccccc1Cl (centres undefined) |  | inactive: -3.41%
O=c1[nH]cccc1-c1nc2ccccc2n1Cc1ccccc1F | inconclusive: 37.7 µM [inhibitor, single point] | 
CC1=CN2C(=N)/C(=C/c3ccc([N+](=O)[O-])o3)C(=O)N=C2S1 | inconclusive: 11.9 µM [inhibitor, partial curve] | 
COC(=O)CNC(=O)C1(C)C=CCN1C(=O)c1ccccc1 (centres undefined) | inconclusive: 37.7 µM [inhibitor, single point] | 
Oc1c(C=NCc2ccncc2)sc2ccccc12 | inconclusive: 26.7 µM [inhibitor, partial curve] | 
CCOC(=O)C1(Cc2cccc(OC)c2)CCN(Cc2ccccc2OC)CC1 | inconclusive: 26.7 µM [inhibitor, partial curve] | 
CC(NS(=O)(=O)c1ccc(Br)cc1)C(=O)Nc1nc2ccccc2[nH]1 (centres undefined) | inconclusive: 10.6 µM [inhibitor, partial curve] | 
O=C(C[n+]1ccccc1)N/N=C/c1ccccc1F | inconclusive: 23.8 µM [inhibitor, single point] | 
Cc1ccc(S(=O)(=O)NCCCNS(=O)(=O)c2ccccc2)cc1 |  | inactive: -12.4%
O=S(=O)(Nc1nc2ccc(Cl)cc2s1)c1cccs1 | inconclusive: 26.7 µM [inhibitor, single point] | 
CCCCC(=O)NC(c1ccc(Cl)cc1)c1ccc2cccnc2c1O (centres undefined) | active: 26.7 µM | 
CN(C)c1ccnc2sc(C(=O)c3ccccc3)c(N)c12 | active: 29.9 µM | 
COc1ccc(NC(=S)Nc2ccc3snnc3c2)cc1 | inconclusive: 13.4 µM [inhibitor, partial curve] | 
Nc1cccc2nsnc12 | inconclusive: 21.2 µM [inhibitor, partial curve] | 
CCCn1c(SCC(=O)NCc2ccc(F)cc2)n[nH]c1=O | active: 21.2 µM | 
COc1ccccc1-c1cc(C(=O)NC2CCN(C)CC2)c2ccc(Cl)c(C)c2n1 |  | inactive: -4.89%
OC(COCC(F)(F)C(F)(F)C(F)(F)C(F)F)Cn1c2ccccc2c2ccccc21 (centres undefined) |  | inactive: -8.65%

Structure (SMILES) | Potency | max response, negative = inhibition
COC(=O)CN1CC(=O)N(c2ccccc2)C1=S | inconclusive: 37.7 µM [inhibitor, single point] | 
O=C(N/N=C/C1CC2C=CC1C2)c1ccccc1O (centres undefined) |  | inactive: -3.34%
COCCc1ncc(CN2CCCC(C(=O)Nc3cccc(-c4cccc(C)c4)c3)C2)cn1 (centres undefined) | inconclusive: 21.2 µM [inhibitor, partial curve] | 
CCCCC(c1nnnn1CC1CCCO1)N1CCN(c2nc3ccccc3s2)CC1 (centres undefined) | inconclusive: 21.2 µM [inhibitor, partial curve] | 
S=c1[nH]cnc2sc(-c3ccccc3)cc12 | inconclusive: 11.9 µM [inhibitor, partial curve] | 
CC1CCc2c(sc(NC(=O)c3nc4ncccn4n3)c2C#N)C1 (centres undefined) | active: 4.74 µM | 
C/C(=N\NC(=O)c1ccc(OC2OCCOC2Oc2ccc(C(=O)N/N=C(\C)c3ccncc3)cc2)cc1)c1ccncc1 (centres undefined) |  | inactive: 2.9%
CC1=Nc2ccccc2/C1=C/c1c(N)n2c(S(=O)(=O)CC(C)C)nsc2nc1=O | inconclusive: 37.7 µM [inhibitor, partial curve] | 
COC(=O)c1ccc(CN2CCN(CC(C)C)C(CCO)C2)cc1 (centres undefined) |  | inactive: -1.16%
CC(C)OC(=O)c1c(NC(=O)C2CC=CCC2C(=O)O)sc2c1CCCCC2 (centres undefined) | inconclusive: 26.7 µM [inhibitor, single point] | 
Oc1c(Cl)cc(Cl)cc1C=Nc1ccc2c(c1)OCCO2 |  | inconclusive: -30.7% [inhibitor]
CN(C)c1ccc(N/C=C/C(=O)c2ccccc2)cc1 |  | inactive: 8.6%
CCCN(C(=O)c1cccc(-n2cccc2)c1)c1c(N)n(Cc2ccccc2)c(=O)[nH]c1=O | inconclusive: 18.9 µM [inhibitor, partial curve] | 
CCCCN1C(=O)C(CC(=O)NCCN2CCOCC2)CC(C(=O)N(CC)CC)=C1C (centres undefined) |  | inactive: -9.34%
CC(C)CC(=O)N1CCN(c2ccc([N+](=O)[O-])c(NCc3ccccc3)c2)CC1 | active: 21.2 µM | 
CCOC(=O)c1sc(C)nc1C1CCN(C(=O)OCC)CC1 | inconclusive: 29.9 µM [inhibitor, single point] | 
O=C(O)c1ccc2c(=O)n3c(nc2c1)/C(=C/c1ccc(Cl)cc1Cl)CC3 | active: 26.7 µM | 
c1ccc(CNc2ccc3c(c2)ncn3C2CCCCC2)nc1 | inconclusive: 23.8 µM [inhibitor, single point] | 
COc1ccc(C(=O)Nc2ccc3oc(-c4cccc(Cl)c4)cc(=O)c3c2O)cc1 | inconclusive: 15 µM [inhibitor, partial curve] | 
Cc1[nH]c(=O)c(C#N)c(C)c1CCC(=O)NCc1ccc(Cl)cc1 |  | inactive: -17%
COc1ccc(CN2CCN(Cc3ccc(C)cc3)C(CCO)C2)cc1OC (centres undefined) |  | inactive: -5.02%
CC(=O)Nc1c(O)nc(SCC(=O)Nc2nnc(SCc3ccccc3)s2)[nH]c1=O | inconclusive: 37.7 µM [inhibitor, partial curve, poor fit] | 
CCC1CO/C(=C(\C(Cl)=C(Cl)Cl)[N+](=O)[O-])N1 (centres undefined) | inconclusive: 23.8 µM [inhibitor, partial curve] | 
CC(C)n1c(=O)c2ccccc2n1CC(=O)N1CCOCC1 |  | inactive: 6.62%
CCOc1ccc(N(CC(=O)NCC2CCCO2)S(=O)(=O)c2ccc(C)cc2)cc1 (centres undefined) | inconclusive: 26.7 µM [inhibitor, partial curve] | 

Individual results from the entries so far:
max response, negative = inhibition, CC1(C)CC(=O)C2=C(C1)NC(=O)NC2c1ccccc1Cl (centres undefined) reads inactive: -3.41%
max response, negative = inhibition, CCCCN1C(=O)C(CC(=O)NCCN2CCOCC2)CC(C(=O)N(CC)CC)=C1C (centres undefined) reads inactive: -9.34%
max response, negative = inhibition, CN(C)c1ccc(N/C=C/C(=O)c2ccccc2)cc1 reads inactive: 8.6%
Potency, CCOC(=O)c1sc(C)nc1C1CCN(C(=O)OCC)CC1 reads inconclusive: 29.9 µM [inhibitor, single point]

Next part.

Structure (SMILES) | Potency | max response, negative = inhibition
COc1ccc(CN2C(=O)C(CC(C)C)Nc3ncnc(N4CCOCC4)c32)cc1 (centres undefined) |  | inactive: -18.3%
N#Cc1c(-c2ccccc2)cc(C2CC2)nc1SCC(=O)O | inconclusive: 29.9 µM [inhibitor, single point] | 
CCCn1c(O)c(N=Nc2ccc3ccccc3n2)c2ccccc21 | inconclusive: 37.7 µM [inhibitor, single point] | 
CCn1c(CNC(=O)Cc2ccc(OC)cc2)nnc1SCC(=O)c1ccccc1 | inconclusive: 21.2 µM [inhibitor, single point] | 
CCCCCCCCCCCCN1[C@@H](CC(=O)O)c2cc(C(F)(F)F)ccc2S1(=O)=O | active: 33.6 µM | 
C/C(=N\NC(=O)CNc1cccc2ccccc12)c1ccccc1 |  | inactive: -1.64%
Cc1[nH][nH]c(=O)c1N=Nc1ccc(Cl)cc1 |  | inactive: -0.213%
Nc1cc(N)nc(SCC(=O)NC(=O)NC2CCCC2)n1 | inconclusive: 21.2 µM [inhibitor, single point] | 
Cc1cc(C)n2cc(CSc3nncn3C)nc2n1 |  | inconclusive: -32.2% [inhibitor]
c1ccc(CCc2nn3c(Cc4ccccc4)nnc3s2)cc1 | active: 10.6 µM | 
O=C1NC(=O)/C(=C\c2ccsc2)N1 | inconclusive: 37.7 µM [inhibitor, single point] | 
Cc1ccccc1N1CCN(S(=O)(=O)c2nnc(NC(=O)c3ccco3)s2)CC1 | inconclusive: 15 µM [inhibitor, partial curve] | 
Cc1ccccc1OCCNC(=O)CSc1ccc(C(F)(F)F)cc1[N+](=O)[O-] | inconclusive: 26.7 µM [inhibitor, partial curve] | 
Cn1cc(S(=O)(=O)c2ccccc2)c(=O)c2cc(Cl)ccc21 | active: 26.7 µM | 
Cc1ccc(CN2CCCN(C)CC2)c(C)c1 | active: 18.9 µM | 
O=C(NCc1ccco1)c1sc(=S)n2c1[nH]c(=O)c1ccccc12 | active: 26.7 µM | 
CC(OC(=O)c1ccccc1NCCO)C(=O)NC1CCCCC1C (centres undefined) |  | inactive: -6.14%
S=c1[nH]c2ccc(Cl)cc2s1 | inconclusive: 6.7 µM [inhibitor, partial curve] | 
O=C(COc1ccc(S(=O)(=O)NCCc2ccccc2)cc1)N1CCCC1 | inconclusive: 33.6 µM [inhibitor, single point] | 
N#C/C(=C\c1cccnc1)C(=O)Nc1cccc(Cl)c1 |  | inactive: -29.1%
O=C(CSc1ccc(Cl)cc1)N1CCCC1 | active: 23.8 µM | 
COc1cccc(CN(C)C(=O)c2cc(-c3ccc(F)cc3)nc3ccccc23)c1 |  | inactive: 1.38%
OCC[C@@H]1C[C@H](O)[C@@H](O)[C@]2(Cc3ccccc3CO2)O1 |  | inactive: -8.97%
Cc1ccccc1OCC(=O)OCC(=O)c1ccc(OCc2ccccc2)cc1 | inconclusive: 8.44 µM [inhibitor, single point] | 
